Measured values reported in article PMC10789764.
These are yes or no findings as the source states them, for the method shown. In cells and extracts the contact can be indirect. Some entries that bind do so weakly or less than the wild type.

The chains behind the UniProt entries cited, without tags or fusion partners.
UniProt Q92633: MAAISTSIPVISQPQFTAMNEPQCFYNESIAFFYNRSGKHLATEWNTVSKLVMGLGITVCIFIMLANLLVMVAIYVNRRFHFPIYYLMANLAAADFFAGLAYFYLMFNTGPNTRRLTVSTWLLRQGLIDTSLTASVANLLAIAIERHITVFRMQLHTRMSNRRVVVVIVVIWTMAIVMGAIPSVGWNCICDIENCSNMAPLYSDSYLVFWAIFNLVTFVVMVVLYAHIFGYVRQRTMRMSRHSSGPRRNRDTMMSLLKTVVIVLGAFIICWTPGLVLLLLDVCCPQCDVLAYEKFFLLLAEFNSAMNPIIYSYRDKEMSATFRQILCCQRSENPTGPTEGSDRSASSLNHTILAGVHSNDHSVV
UniProt P49407: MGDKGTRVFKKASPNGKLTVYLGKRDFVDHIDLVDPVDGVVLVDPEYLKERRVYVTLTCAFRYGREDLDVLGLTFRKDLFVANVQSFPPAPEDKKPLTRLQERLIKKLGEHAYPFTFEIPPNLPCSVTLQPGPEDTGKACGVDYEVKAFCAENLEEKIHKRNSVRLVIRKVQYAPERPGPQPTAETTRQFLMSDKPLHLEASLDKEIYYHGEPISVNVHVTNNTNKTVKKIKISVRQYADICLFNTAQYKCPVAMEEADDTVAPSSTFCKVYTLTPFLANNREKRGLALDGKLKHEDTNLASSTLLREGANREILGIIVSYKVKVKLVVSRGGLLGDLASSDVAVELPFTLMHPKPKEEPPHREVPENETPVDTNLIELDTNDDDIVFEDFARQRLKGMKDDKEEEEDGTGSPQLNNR

Molecular target: lysophosphatidic acid receptor 1 (LPAR1), NanoBiT fusion of the β-arrestin1 recruitment assay (UniProt Q92633)
Assay: split reporter; NanoBiT-based β-arrestin1 recruitment to LPAR1; dose-response with LPA (reference, Emax = 100%), mianserin, mirtazapine, VPC31143, pAEA, OMPT

binding: binds
Substance: β-arrestin1, NanoBiT fusion of the β-arrestin1 recruitment assay (from UniProt P49407 1-418)
